Test results: PubChem BioAssay (NCATS)
This list was built around the results that the source calls inconclusive (neither active nor inactive); the mix of calls is not that of the screen. Potencies of inconclusive entries are doubtful fits and often do not repeat. Active and inactive are the calls of the source. Calls come from the whole dose curve; as a rule, active = well fitted cell-killing curve with a large enough effect; inconclusive = small, poorly fitted or top-dose-only effect, or effect the other way; inactive = no such curve, though single readings can be large or run the other way.

How the values were obtained:
[1] = Quantitative High-Throughput drug screen in 47 multiple myeloma cell lines against the NCATS MIPE library collection: FR4_PLB cell viability assay (AID 1918924; note: nearly all actives have a fitted effect of over 35% in size;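 for viability (% of DMSO control): 100% = DMSO-treated cells and 0% = wells with media only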); settings: FR4_PLB myeloma cells viability, CellTiter-Glo ATP, 48 h; viability (% of DMSO control): at 45.8 µM (top of the series)
In short: (§1)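 Relative luminescence from CellTiter-Glo served as the viability signal, referenced to DMSO-treated (100%) and cell-free medium (0%) controls. Treatment lasted 48 hours at 37C with 500 cells per well.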

[2] = Quantitative High-Throughput drug screen in 47 multiple myeloma cell lines against the NCATS MIPE library collection: ARD_JJKsccE7 cell viability assay (AID 1918929;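 for viability: 100% = DMSO-only wells and 0% = media-only wells without cells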)
In short: (§2)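 Primary qHTS used for cherry-picking: cells at 500/well, library compounds for 48 h (37C, 5% CO2), luminescent ATP assay.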

[3] = Quantitative High-Throughput drug screen in 47 multiple myeloma cell lines against the NCATS MIPE library collection: Karpas417_ECACC cell viability assay (AID 1918961); settings: Karpas417 myeloma viability, CellTiter-Glo ATP luminescence, 48 h; viability (% of DMSO): at 45.8 µM (top of the series) unless noted;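 for viability (% of DMSO): 100% = DMSO only wells and 0% = media only wells without cells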
In short: as §1

[4] = Quantitative High-Throughput drug screen in 47 multiple myeloma cell lines against the NCATS MIPE library collection: KHM11_PLB cell viability assay (AID 1918962); settings: KHM11 myeloma cell viability, CellTiter-Glo ATP luminescence, 48 h; viability, % of DMSO control: at 45.8 µM (top of the series); note: nearly all actives have a fitted effect of over 35% in size;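 for viability, % of DMSO control: 0% = media only wells and 100% = DMSO treated cells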
In short: as §1

[5] = Quantitative High-Throughput drug screen in 47 multiple myeloma cell lines against the NCATS MIPE library collection: ARP1_JJKsccF8 cell viability assay (AID 1918928; note: nearly all actives have a fitted effect of over 40% in size); settings: ARP1 myeloma cells viability, CellTiter-Glo ATP, 48 h; viability: at 45.8 µM (top of the series)
In short: (§3)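 Viability screen: myeloma cells (500/well) incubated 48 h at 37 °C, humidified 5% CO2, with pinned library compounds; CellTiter-Glo added, luminescence read; DMSO wells set 100%, medium-only wells 0%.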

[6] = Quantitative High-Throughput drug screen in 47 multiple myeloma cell lines against the NCATS MIPE library collection: Karpas620_DSMZ cell viability assay (AID 1918959); note: nearly all actives have a fitted effect of over 30% in size;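 for viability (% of DMSO): 100% = DMSO-only wells and 0% = cell-free media-only wells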
In short: as §1

[7] = Quantitative High-Throughput drug screen in 47 multiple myeloma cell lines against the NCATS MIPE library collection: Delta47_JCRB cell viability assay (AID 1918925; note: nearly all actives have a fitted effect of over 45% in size); settings: Delta47 myeloma viability, CellTiter-Glo ATP, 48 h; viability (% of DMSO): at 45.8 µM (top of the series) unless noted
In short: as §2

[8] = Quantitative High-Throughput drug screen in 47 multiple myeloma cell lines against the NCATS MIPE library collection: EJM_DSMZ cell viability assay (AID 1918926; note: nearly all actives have a fitted effect of over 30% in size;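 for viability, % of control: 100% = DMSO-only wells and 0% = media-only wells without cells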); settings: EJM myeloma cell viability, CellTiter-Glo ATP, 48 h; viability, % of control: at 45.8 µM (top of the series)
In short: as §2

[9] = Quantitative High-Throughput drug screen in 47 multiple myeloma cell lines against the NCATS MIPE library collection: AMO1_DSMZ cell viability assay (AID 1918927; note: nearly all actives have a fitted effect of over 30% in size;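 for viability, % of DMSO: 100% = DMSO only wells and 0% = cell-free media only wells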)
In short: as §2

[10] = Quantitative High-Throughput drug screen in 47 multiple myeloma cell lines against the NCATS MIPE library collection: KMM1_JCRB cell viability assay (AID 1918960); settings: KMM1 myeloma viability, CellTiter-Glo ATP luminescence, 48 h; viability (% of DMSO): at 45.8 µM (top of the series); note: nearly all actives have a fitted effect of over 30% in size
In short: as §3
Potency is the fitted concentration of half-maximal effect.

Nc1nc2[nH]cc(CCc3ccc(C(=O)N[C@@H](CCC(=O)O)C(=O)O)cc3)c2c(=O)[nH]1
active: Potency [2] 0.469 µM
inconclusive: Potency [1] 1.18 µM [rising, partial curve, poor fit] | Potency [3] 0.0105 µM [cytotoxic, full curve, poor fit] | Potency [4] 1.18 µM [rising, full curve, poor fit]

CC(C)n1cnc2c(NCCCCCCNC(=O)OC(C)(C)C)nc(NCCO)nc21
inconclusive: Potency [1] 33.2 µM [cytotoxic, single point] | Potency [5] 29.6 µM [cytotoxic, single point] | Potency [6] 3.32 µM [cytotoxic, full curve, poor fit] | Potency [3] 37.2 µM [rising, single point] | Potency [4] 37.2 µM [cytotoxic, single point]
active: Potency [2] 5.9 µM

CNCCCC12CCC(c3ccccc31)c1ccccc12
active: Potency [7] 18.7 µM | Potency [9] 23.5 µM | Potency [4] 26.4 µM
inconclusive: Potency [8] 16.6 µM [cytotoxic, partial curve, poor fit] | Potency [2] 37.2 µM [cytotoxic, single point] | Potency [3] 33.2 µM [cytotoxic, single point]

C[C@]12CCC3c4ccc(O)cc4CCC3C1CCC2=O (stereo partly specified)
inconclusive: Potency [5] 18.7 µM [cytotoxic, single point] | Potency [3] 9.35 µM [rising, full curve, poor fit]
active: Potency [9] 0.833 µM
inactive: Potency [7] | Potency [8] | Potency [10] | Potency [4]

CC#CCn1c(N2CCC[C@@H](N)C2)nc2c1c(=O)n(Cc1nc(C)c3ccccc3n1)c(=O)n2C
inactive: Potency [8] | Potency [9] | Potency [2] | Potency [10] | Potency [4]
inconclusive: Potency [7] 0.0118 µM [cytotoxic, full curve, poor fit] | Potency [3] 0.0026 µM [cytotoxic, full curve, poor fit]

CC(=O)OCC(CCn1cnc2cnc(N)nc21)COC(C)=O
inactive: Potency [7] | Potency [8] | Potency [9] | Potency [5] | Potency [2] | Potency [6] | Potency [4]
inconclusive: Potency [10] 0.0012 µM [rising, full curve] | Potency [3] 0.0083 µM [cytotoxic, full curve, poor fit]

CCCC(CCC)C(=O)O
inconclusive: Potency [7] 26.4 µM [cytotoxic, single point]
inactive: Potency [8] | Potency [9] | Potency [5] | Potency [2] | Potency [10] | Potency [4]

CC(C)(C)[N+]([O-])=Cc1ccc(S(=O)(=O)O)cc1S(=O)(=O)O
inactive: Potency [7] | Potency [8] | Potency [9] | Potency [5]
inconclusive: Potency [2] 0.0019 µM [cytotoxic, full curve, poor fit] | Potency [3] 0.0118 µM [cytotoxic, full curve, poor fit] | Potency [4] 5.9 µM [rising, partial curve, poor fit]

CCCNCC(O)COc1ccccc1C(=O)CCc1ccccc1 (stereo unspecified)
inactive: Potency [5]
inconclusive: Potency [7] 18.7 µM [cytotoxic, partial curve, poor fit] | Potency [8] 37.2 µM [cytotoxic, single point] | Potency [9] 20.9 µM [cytotoxic, partial curve] | Potency [2] 11.8 µM [cytotoxic, partial curve, poor fit] | Potency [6] 37.2 µM [cytotoxic, single point] | Potency [10] 26.4 µM [cytotoxic, single point] | Potency [4] 0.0074 µM [rising, full curve, poor fit]

O=C1NC(=O)C(=Cc2ccc3c(c2)OC(F)(F)O3)S1
inconclusive: Potency [7] 23.5 µM [cytotoxic, partial curve, poor fit] | Potency [8] 37.2 µM [cytotoxic, single point] | Potency [9] 16.6 µM [cytotoxic, partial curve] | Potency [5] 0.526 µM [cytotoxic, full curve, poor fit] | Potency [6] 23.5 µM [cytotoxic, partial curve] | Potency [10] 23.5 µM [cytotoxic, partial curve] | Potency [3] 23.5 µM [cytotoxic, partial curve, poor fit]
active: Potency [4] 13.2 µM

O=c1[nH]c(=O)n(C2CCCO2)cc1F (stereo unspecified)
inconclusive: Potency [8] 13.6 µM [cytotoxic, partial curve, poor fit] | Potency [3] 67.9 µM [rising, partial curve, poor fit]
inactive: Potency [7] | Potency [9] | Potency [2] | Potency [4]

Cn1c2cc(S(C)=O)sc2c2cnn(Cc3cccc(N)c3)c(=O)c21 (stereo unspecified)
inactive: Potency [8] | Potency [9] | Potency [5] | Potency [2] | Potency [6] | Potency [3]
inconclusive: Potency [7] 0.469 µM [cytotoxic, full curve, poor fit] | Potency [4] 1.66 µM [cytotoxic, full curve, poor fit]

CN(C)CCC=C1c2ccccc2COc2ccc(CC(=O)O)cc21
inactive: Potency [8] | Potency [9] | Potency [5] | Potency [2] | Potency [6]
inconclusive: Potency [7] 7.43 µM [cytotoxic, partial curve, poor fit] | Potency [10] 0.0118 µM [rising, full curve, poor fit] | Potency [3] 0.0033 µM [cytotoxic, full curve, poor fit]

CON(C)C(=O)N1N=C(c2cc(F)ccc2F)S[C@]1(CCCN)c1ccccc1
inconclusive: Potency [10] 0.0019 µM [cytotoxic, full curve] | Potency [3] 0.0042 µM [cytotoxic, full curve, poor fit] | Potency [4] 29.6 µM [cytotoxic, single point]
inactive: Potency [1]

O=c1c(O)c(-c2cc(O)c(O)c(O)c2)oc2cc(O)cc(O)c12
inconclusive: Potency [1] 33.2 µM [cytotoxic, single point] | Potency [5] 33.2 µM [cytotoxic, partial curve, poor fit] | Potency [3] 37.2 µM [rising, single point]
inactive: Potency [2] | Potency [4]

CCC(=O)N[C@H]1CC[C@H](C(=O)N(C)c2ccc(-c3nc4ccccc4o3)cc2)C1
inconclusive: Potency [1] 33.2 µM [cytotoxic, single point] | Potency [5] 18.7 µM [cytotoxic, partial curve] | Potency [6] 29.6 µM [cytotoxic, single point] | Potency [10] 13.2 µM [cytotoxic, partial curve] | Potency [4] 8.33 µM [cytotoxic, full curve]

CN1CCN2c3ncccc3Cc3ccccc3C2C1 (stereo unspecified)
inactive: Potency [7] | Potency [8] | Potency [9] | Potency [2] | Potency [6] | Potency [10] | Potency [4]
inconclusive: Potency [3] 37.2 µM [rising, single point]

CN1CCC(=C2c3ccccc3CC(=O)c3sccc32)CC1
inconclusive: Potency [10] 18.7 µM [cytotoxic, partial curve, poor fit] | Potency [4] 37.2 µM [cytotoxic, single point]
inactive: Potency [1] | Potency [5] | Potency [3]

CN(C)S(=O)(=O)c1ccc2c(c1)C(=Cc1cc3c([nH]1)CCCC3)C(=O)N2
inconclusive: Potency [9] 7.43 µM [cytotoxic, full curve] | Potency [5] 4.18 µM [cytotoxic, full curve] | Potency [4] 0.743 µM [cytotoxic, full curve, poor fit]
active: Potency [7] 2.96 µM | Potency [3] 1.32 µM
inactive: Potency [10]

CCOc1cc(CC(=O)N[C@@H](CC(C)C)c2ccccc2N2CCCCC2)ccc1C(=O)O
inactive: Potency [5] | Potency [2]
inconclusive: Potency [7] 0.0132 µM [rising, full curve] | Potency [9] 33.2 µM [cytotoxic, single point] | Potency [10] 2.96 µM [rising, full curve, poor fit] | Potency [3] 16.6 µM [cytotoxic, partial curve, poor fit] | Potency [4] 0.0033 µM [rising, full curve, poor fit]

Cc1cc2c(cc1C1(c3ccc(C(=O)O)cn3)CC1)C(C)(C)CCC2(C)C
active: Potency [9] 5.26 µM
inconclusive: Potency [7] 7.43 µM [cytotoxic, partial curve, poor fit] | Potency [2] 0.0023 µM [rising, full curve, poor fit] | viability (% of DMSO) [3] 207% | Potency [4] 0.0019 µM [rising, full curve]
